# Laboratory results as given in the supplement of paper PMC6411743.
# ± gives the standard deviation of the averaged measurements. This is a selection; strong and weak results do not stand in their true shares.
# Tests used:
# Assay in all cases: NP40-soluble protein abundance relative to vehicle (solubility fold change) (ratio); higher = more soluble protein in presence of ATP
# NPAT = target: T1, NPAT (UniProt Q14207)
# T1 sequence (whole entry): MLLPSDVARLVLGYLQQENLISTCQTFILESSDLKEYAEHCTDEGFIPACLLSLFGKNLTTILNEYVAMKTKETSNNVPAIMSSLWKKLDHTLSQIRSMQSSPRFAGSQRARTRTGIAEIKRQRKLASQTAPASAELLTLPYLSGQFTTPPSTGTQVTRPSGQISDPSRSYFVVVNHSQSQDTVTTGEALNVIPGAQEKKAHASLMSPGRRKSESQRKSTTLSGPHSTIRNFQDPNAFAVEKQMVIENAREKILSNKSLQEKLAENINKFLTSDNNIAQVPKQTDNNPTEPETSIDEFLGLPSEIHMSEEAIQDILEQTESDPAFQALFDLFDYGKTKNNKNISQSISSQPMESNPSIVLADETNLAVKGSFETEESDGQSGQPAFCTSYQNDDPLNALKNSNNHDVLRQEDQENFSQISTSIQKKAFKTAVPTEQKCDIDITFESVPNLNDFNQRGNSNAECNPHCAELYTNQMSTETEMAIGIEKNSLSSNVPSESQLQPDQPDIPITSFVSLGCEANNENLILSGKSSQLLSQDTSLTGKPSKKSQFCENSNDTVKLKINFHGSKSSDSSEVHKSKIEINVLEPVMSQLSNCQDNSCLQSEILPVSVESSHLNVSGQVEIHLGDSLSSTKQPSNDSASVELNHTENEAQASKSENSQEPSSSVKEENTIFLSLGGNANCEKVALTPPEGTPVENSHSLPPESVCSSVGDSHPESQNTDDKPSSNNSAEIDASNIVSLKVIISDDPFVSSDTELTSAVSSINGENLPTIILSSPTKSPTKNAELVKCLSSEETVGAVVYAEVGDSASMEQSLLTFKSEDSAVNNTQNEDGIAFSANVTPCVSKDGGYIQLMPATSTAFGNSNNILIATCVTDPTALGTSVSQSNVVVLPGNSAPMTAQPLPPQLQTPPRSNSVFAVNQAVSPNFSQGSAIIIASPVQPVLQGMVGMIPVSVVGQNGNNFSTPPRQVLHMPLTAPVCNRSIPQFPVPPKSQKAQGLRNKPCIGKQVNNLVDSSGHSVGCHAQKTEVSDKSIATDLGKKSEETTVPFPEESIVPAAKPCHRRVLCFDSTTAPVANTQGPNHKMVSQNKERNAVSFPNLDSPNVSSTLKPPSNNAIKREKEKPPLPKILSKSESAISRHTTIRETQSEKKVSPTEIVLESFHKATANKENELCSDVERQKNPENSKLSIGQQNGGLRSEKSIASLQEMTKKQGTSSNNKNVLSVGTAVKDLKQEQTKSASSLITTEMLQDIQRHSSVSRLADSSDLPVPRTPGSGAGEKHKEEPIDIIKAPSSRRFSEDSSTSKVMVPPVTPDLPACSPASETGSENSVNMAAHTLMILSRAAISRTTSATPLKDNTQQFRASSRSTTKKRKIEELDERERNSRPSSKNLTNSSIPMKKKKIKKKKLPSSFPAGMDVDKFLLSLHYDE
# Method in brief: (§1)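 Data come from three independent experiments in which Dounce-homogenised Jurkat crude lysate was treated at eight concentrations from 0.1 to 10 mM. Treatment ran 10 min at room temperature and then 3 min at 37 °C, after which 0.8% NP40 and benzonase were added for 60 min at 4 °C before ultracentrifugation. The supernatant underwent TMT labelling and LC-MS/MS, and vsn-normalised intensities were expressed as fold change against the detergent-processed vehicle in each replicate.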
# POLD3 = target: T2, POLD3 (UniProt Q15054)
# T2 sequence (whole entry): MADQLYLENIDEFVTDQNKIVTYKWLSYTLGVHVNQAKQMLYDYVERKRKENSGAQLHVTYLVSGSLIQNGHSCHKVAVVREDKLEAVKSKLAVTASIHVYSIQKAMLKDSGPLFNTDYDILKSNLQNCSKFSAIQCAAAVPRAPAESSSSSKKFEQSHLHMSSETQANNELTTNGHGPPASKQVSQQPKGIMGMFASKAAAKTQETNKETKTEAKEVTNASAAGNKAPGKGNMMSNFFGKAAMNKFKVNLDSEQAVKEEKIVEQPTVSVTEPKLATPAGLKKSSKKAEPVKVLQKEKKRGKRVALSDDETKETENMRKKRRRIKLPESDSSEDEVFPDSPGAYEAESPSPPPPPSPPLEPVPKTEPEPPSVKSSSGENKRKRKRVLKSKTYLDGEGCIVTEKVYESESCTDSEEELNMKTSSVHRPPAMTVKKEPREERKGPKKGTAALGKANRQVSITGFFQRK
# Method in brief: as §1
# RCN1 = target: T3, RCN1 (UniProt Q15293)
# T3 sequence (whole entry): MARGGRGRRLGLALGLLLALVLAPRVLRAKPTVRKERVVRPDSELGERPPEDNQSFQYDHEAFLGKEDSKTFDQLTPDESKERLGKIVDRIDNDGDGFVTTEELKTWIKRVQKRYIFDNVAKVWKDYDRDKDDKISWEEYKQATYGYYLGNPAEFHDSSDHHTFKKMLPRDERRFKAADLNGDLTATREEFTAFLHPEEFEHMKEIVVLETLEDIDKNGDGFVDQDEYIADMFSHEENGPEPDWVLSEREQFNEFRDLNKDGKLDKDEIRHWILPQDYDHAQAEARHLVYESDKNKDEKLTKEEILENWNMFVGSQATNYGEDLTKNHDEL
# Method in brief: as §1
# TTF1 = target: T4, TTF1 (UniProt Q15361)
# T4 sequence (whole entry): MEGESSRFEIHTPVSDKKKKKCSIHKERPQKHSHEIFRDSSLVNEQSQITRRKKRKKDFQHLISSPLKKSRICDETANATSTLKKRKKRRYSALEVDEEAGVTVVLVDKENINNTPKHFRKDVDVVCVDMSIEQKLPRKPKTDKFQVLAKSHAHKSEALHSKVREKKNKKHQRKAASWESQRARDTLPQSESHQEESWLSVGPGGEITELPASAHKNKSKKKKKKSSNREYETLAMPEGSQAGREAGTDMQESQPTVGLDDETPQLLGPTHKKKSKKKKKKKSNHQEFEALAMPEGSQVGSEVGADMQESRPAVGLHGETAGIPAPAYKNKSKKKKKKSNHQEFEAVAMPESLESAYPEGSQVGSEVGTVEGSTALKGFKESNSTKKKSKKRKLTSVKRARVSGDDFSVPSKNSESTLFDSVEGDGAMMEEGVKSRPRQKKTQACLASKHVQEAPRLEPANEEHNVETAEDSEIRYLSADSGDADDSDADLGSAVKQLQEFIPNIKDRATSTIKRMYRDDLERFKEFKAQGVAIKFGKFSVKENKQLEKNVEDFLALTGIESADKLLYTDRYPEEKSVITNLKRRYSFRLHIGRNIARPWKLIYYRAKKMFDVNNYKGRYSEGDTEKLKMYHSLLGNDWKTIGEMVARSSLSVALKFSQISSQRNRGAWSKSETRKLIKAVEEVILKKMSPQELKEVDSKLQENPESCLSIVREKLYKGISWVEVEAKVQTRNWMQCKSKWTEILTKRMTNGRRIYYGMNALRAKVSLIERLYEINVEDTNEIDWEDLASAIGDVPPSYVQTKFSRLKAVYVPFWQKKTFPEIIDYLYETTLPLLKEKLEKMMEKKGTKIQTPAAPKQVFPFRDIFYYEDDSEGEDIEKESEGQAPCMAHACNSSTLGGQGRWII
# Method in brief: as §1
compound,measurement,setting,value
Nc1ncnc2c1ncn2[C@@H]1O[C@H](COP(=O)(O)OP(=O)(O)OP(=O)(O)O)[C@@H](O)[C@H]1O [adenosine triphosphate],NP40-soluble protein abundance,NPAT; concentration: 1mM,1 ± 0.067
same,NP40-soluble protein abundance,NPAT; concentration: 2mM,0.99 ± 0.1
same,NP40-soluble protein abundance,NPAT; concentration: 4mM,1.03 ± 0.024
same,NP40-soluble protein abundance,NPAT; concentration: 6mM,1.07 ± 0.13
same,NP40-soluble protein abundance,NPAT; concentration: 8mM,1 ± 0.074
same,NP40-soluble protein abundance,NPAT; concentration: 10mM,1.03 ± 0.081
same,NP40-soluble protein abundance,POLD3; concentration: 1mM,0.9308 ± 0.0092
same,NP40-soluble protein abundance,POLD3; concentration: 2mM,0.938 ± 0.039
same,NP40-soluble protein abundance,POLD3; concentration: 4mM,0.907 ± 0.058
same,NP40-soluble protein abundance,POLD3; concentration: 6mM,0.941 ± 0.027
same,NP40-soluble protein abundance,POLD3; concentration: 8mM,0.887 ± 0.049
same,NP40-soluble protein abundance,POLD3; concentration: 10mM,0.897 ± 0.041
same,NP40-soluble protein abundance,RCN1; concentration: 1mM,0.991 ± 0.059
same,NP40-soluble protein abundance,RCN1; concentration: 2mM,1.002 ± 0.0026
same,NP40-soluble protein abundance,RCN1; concentration: 4mM,0.987 ± 0.011
same,NP40-soluble protein abundance,RCN1; concentration: 6mM,0.993 ± 0.014
same,NP40-soluble protein abundance,RCN1; concentration: 8mM,0.98 ± 0.02
same,NP40-soluble protein abundance,RCN1; concentration: 10mM,0.962 ± 0.045
same,NP40-soluble protein abundance,TTF1; concentration: 1mM,0.925 ± 0.13
same,NP40-soluble protein abundance,TTF1; concentration: 2mM,0.903 ± 0.16
same,NP40-soluble protein abundance,TTF1; concentration: 4mM,0.946 ± 0.17
same,NP40-soluble protein abundance,TTF1; concentration: 6mM,0.942 ± 0.2
same,NP40-soluble protein abundance,TTF1; concentration: 8mM,0.954 ± 0.18
same,NP40-soluble protein abundance,TTF1; concentration: 10mM,0.931 ± 0.23

# Quoted at random: two records from the list
compound,measurement,setting,value
Nc1ncnc2c1ncn2[C@@H]1O[C@H](COP(=O)(O)OP(=O)(O)OP(=O)(O)O)[C@@H](O)[C@H]1O [adenosine triphosphate],NP40-soluble protein abundance,NPAT; concentration: 10mM,1.03 ± 0.081
same,NP40-soluble protein abundance,TTF1; concentration: 6mM,0.942 ± 0.2
